# Test results as given in PubChem BioAssay AID504847 (National Center for Advancing Translational Sciences (NCATS), 2011).
# Protein sequences, listed by entry. Tags and fused reporters are not part of them. Lines headed by an entry give the natural chain unless they say otherwise; changes in a name come on top.
# UniProt P11473: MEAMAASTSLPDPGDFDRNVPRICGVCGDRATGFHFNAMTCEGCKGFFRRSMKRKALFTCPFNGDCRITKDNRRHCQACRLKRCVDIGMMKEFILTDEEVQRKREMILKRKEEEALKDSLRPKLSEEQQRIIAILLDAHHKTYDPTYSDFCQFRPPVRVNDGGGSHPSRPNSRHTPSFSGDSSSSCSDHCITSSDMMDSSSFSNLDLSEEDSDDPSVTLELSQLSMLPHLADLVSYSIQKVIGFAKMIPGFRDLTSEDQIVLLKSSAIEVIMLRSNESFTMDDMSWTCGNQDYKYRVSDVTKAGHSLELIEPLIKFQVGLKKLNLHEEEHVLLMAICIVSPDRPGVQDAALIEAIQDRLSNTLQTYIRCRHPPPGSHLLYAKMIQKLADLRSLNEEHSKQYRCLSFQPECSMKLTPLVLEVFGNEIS
# Among all 400,000 compounds or so, about 3,700 (0.93%) were called active. Inconclusive means that the source gave no clear call. Such entries were picked first, then a sample of the others. Calls follow the shape of the dose curve; as a rule, active = well fitted inhibition curve with a large enough effect; inconclusive = small, poorly fitted or top-dose-only effect, or another doubt; inactive = no such curve, though single readings can be large or run the other way. Where the call is inconclusive, the potency comes from a doubtful curve fit. Where a structure was tested more than once in an assay, its records may differ in their call.
# Molecular target: Vitamin D3 receptor (Homo sapiens) (UniProt P11473)
# Test: Inhibitors of the vitamin D receptor (VDR): qHTS
# Details: VDR-SRC2-3 peptide fluorescence polarization, 2 h; max response, negative = inhibition: active compounds read low
# Method in brief: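 Two reagent solutions held at 4 deg C in the dark were dispensed, compounds pinned at 23 nl, and the mixture incubated 2 h at room temperature. Read-out: fluorescence polarization of VDR–SRC2-3 peptide binding.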
# % is scaled to controls: 0 for no effect and ±100 for the full control effect; potency is read from the fitted curve at half-maximal effect.
SMILES,Potency,"max response, negative = inhibition"
CCOc1ccc(NC(=O)CCn2c(=S)oc3ccccc32)cc1,"inconclusive: 89.1 µM [inhibitor, single point]",
COc1ccccc1-c1cn[nH]c(=S)n1,"inconclusive: 89.1 µM [inhibitor, partial curve, poor fit]",
c1ccc(-c2nnc3sc(-c4csc5c4CCCC5)nn23)cc1,"inconclusive: 44.7 µM [inhibitor, partial curve, poor fit]",
Cc1csc2nc(COc3ccc(NC(=O)COc4ccc(F)cc4)cc3)cc(=O)n12,"inconclusive: 89.1 µM [inhibitor, single point]",
CC(C)N1CSC(=S)N(Cc2ccccc2)C1,active: 79.4 µM,
Cc1[nH]c(-c2ccc3c(c2)OCO3)nc1C(=O)O,,inactive: -5.23%
CC(C)c1ccc(CNc2nc(-c3ccco3)nn2S(=O)(=O)c2ccccc2)cc1,,inactive: 3.29%
Fc1ccc(C2=NCCC(c3ccccc3)O2)cc1 (centres undefined),"inconclusive: 141 µM [inhibitor, partial curve, poor fit]",
O=C1c2ccccc2C(Nc2ccccc2)N1c1cccnc1 (centres undefined),,inactive: 13%
CCC1(c2ccc(F)cc2)NC(=O)N(CC(=O)NC2CCCC(C)C2C)C1=O (centres undefined),"inconclusive: 79.4 µM [inhibitor, single point]",
c1ccc(-c2cncnc2)cc1,,inactive: -2.34%
CCN(CC)c1ccc2cc(-c3nc4ccccc4n3C)c(=O)oc2c1,"inconclusive: 89.1 µM [inhibitor, single point]",
COc1cc([N+](=O)[O-])cc(/C=C2/SC(=S)N(Cc3ccccc3)C2=O)c1O,"inconclusive: 79.4 µM [inhibitor, partial curve, poor fit]",
Cc1nn(CCOc2ccccc2Cl)c(C)c1[N+](=O)[O-],,inactive: 8.62%
O=C1NC(=O)C(c2ccccc2[N+](=O)[O-])=C1Nc1ccc(O)c(Cl)c1,active: 44.7 µM,
COc1cccc(CN(C(=O)c2ccc([N+](=O)[O-])cc2)C2CCS(=O)(=O)C2)c1 (centres undefined),"inconclusive: 31.6 µM [inhibitor, single point]",
COc1ccc(NC(=O)c2cnn(-c3ccccc3)c2C)cc1,,inactive: 6.65%
O=S(=O)(O)c1ccc(O)c2cc(Nc3ccccc3)ccc12,"inconclusive: 50.1 µM [inhibitor, partial curve, poor fit]",
O=C(Nc1ccc(F)cc1)c1ccc(-n2cnnc2)cc1,,inactive: 2.18%
CC(/C=C/c1ccco1)=N/NC(=O)c1ccccc1Cl,"inconclusive: 79.4 µM [inhibitor, partial curve]",
Cc1cccc(Oc2nc3ccccn3c(=O)c2/C=C(\C#N)C(=O)NC2CCS(=O)(=O)C2)c1C (centres undefined),"inconclusive: 56.2 µM [inhibitor, partial curve, poor fit]",
Cc1ccc(-c2cc[n+](Cc3ccccc3)cc2)cc1,"inconclusive: 56.2 µM [inhibitor, partial curve, poor fit]",
Cc1nc(SCC(=O)Nc2ccc3[nH]c(=O)[nH]c3c2)nc(C)c1C,"inconclusive: 89.1 µM [inhibitor, single point]",

# Part of the list above, bar-delimited:
SMILES | Potency | max response, negative = inhibition
c1ccc(-c2cncnc2)cc1 |  | inactive: -2.34%
CCN(CC)c1ccc2cc(-c3nc4ccccc4n3C)c(=O)oc2c1 | inconclusive: 89.1 µM [inhibitor, single point] | 
COc1cc([N+](=O)[O-])cc(/C=C2/SC(=S)N(Cc3ccccc3)C2=O)c1O | inconclusive: 79.4 µM [inhibitor, partial curve, poor fit] | 

# Next compounds

SMILES,Potency,"max response, negative = inhibition"
CN1c2ccc([N+](=O)[O-])cc2C(C)(C)C12C=Cc1cc(C(=O)O)ccc1O2 (centres undefined),"inconclusive: 56.2 µM [inhibitor, partial curve, poor fit]",
Cc1ccc(NC(=O)CN(C)C(=O)CSc2ccccc2F)cc1,,inactive: -4.21%
COc1ccccc1C(=O)Nc1ccc2c(c1)CCCN2C(=O)c1ccccc1,"inconclusive: 35.5 µM [inhibitor, single point]",
Oc1ccc(NCc2cccc(OCc3ccc(F)cc3)c2)cc1,"inconclusive: 70.8 µM [inhibitor, partial curve, poor fit]",
COc1cc2c(cc1OC)C1CC(=O)C(CC(C)C)CN1CC2 (centres undefined),"inconclusive: 89.1 µM [inhibitor, single point]",
CCOC(=O)c1c(NC(=O)/C=C/C(=O)O)sc(C)c1-c1ccc(C(C)(C)C)cc1,active: 20 µM,
Cc1nn(-c2ccccc2)c2nc(=O)n(-c3ccccc3)cc12,"inconclusive: 8.91 µM [inhibitor, partial curve, poor fit]",
Cc1ccc(C(C[N+](=O)[O-])c2c(C)[nH]n(-c3ccccc3)c2=O)cc1 (centres undefined),active: 44.7 µM,
CC1=C(C(N)=O)C(c2ccccc2F)n2nc(CCCO)nc2N1 (centres undefined),"inconclusive: 79.4 µM [inhibitor, single point]",
COc1ccc(OC)c2sc(N(CCCN(C)C)C(=O)CCS(=O)(=O)c3ccccc3)nc12,"inconclusive: 89.1 µM [inhibitor, single point]",
CN(CCOc1ccc(Cl)cc1)C(=O)c1ccc2c(=O)n3c(nc2c1)CCC3,"inconclusive: 70.8 µM [inhibitor, partial curve]",
Cc1cc(C)nc(/N=C(\N)N(Cc2ccccc2)Cc2ccccc2)n1,,inactive: -8.8%
Cc1ccc(CNC(C)c2ccccc2)cc1 (centres undefined),"inconclusive: 17.8 µM [inhibitor, full curve, poor fit]",
Cn1cc(S(=O)(=O)N2CCCCCC2)cc1C(=O)N1CCN(c2cccc(C(F)(F)F)c2)CC1,,inactive: 16.8%
O=C(/C=C/c1cccc([N+](=O)[O-])c1)c1ccc2c(c1)OCCO2,"inconclusive: 56.2 µM [inhibitor, partial curve, poor fit]",
C=CCOC(/C=C/c1ccccc1)C[Si](C)(C)C (centres undefined),"inconclusive: 100 µM [inhibitor, partial curve, poor fit]",
Cc1cc(C(=O)NCc2ccc(Cl)cc2)n(-c2ccccc2)n1,"inconclusive: 50.1 µM [inhibitor, partial curve, poor fit]",
Cc1nc2ccccn2c1-c1ccnc(=S)[nH]1,"inconclusive: 89.1 µM [inhibitor, single point]",
COc1ccc(N2CC(NC(=O)COc3ccc(F)cc3)CC2=O)cc1OC (centres undefined),,inactive: 5.8%
CCOc1ccc2[nH]c3c(N4CCc5ccccc5C4)ncnc3c2c1,,inactive: -7.6%
CCCCCCCC1CC(/C(C)=N/NC(N)=O)OC1=O (centres undefined),active: 44.7 µM,
O=S(=O)(Nc1nc(-c2sccc2Cl)cs1)c1cc(Cl)ccc1Cl,"inconclusive: 79.4 µM [inhibitor, single point]",
Cc1ccc(S(=O)(=O)c2nc(Cc3ccccc3)oc2N2CCOCC2)cc1,"inconclusive: 79.4 µM [inhibitor, single point]",

SMILES,Potency,"max response, negative = inhibition"
COc1cc(CN2CCNC(=O)C2CC(=O)N(C)CCC2CCOCC2)cc(OC)c1 (centres undefined),"inconclusive: 25.1 µM [inhibitor, single point]",
O=C(N/N=C/C=C/c1ccco1)c1cccnc1,"inconclusive: 100 µM [inhibitor, single point]",
CC(C)=CCC/C(C)=C/CC/C(C)=C/CC/C(C)=C/C(=O)O,"inconclusive: 39.8 µM [inhibitor, partial curve, poor fit]",
Cc1ccc(C(=O)Nc2ccncc2)cc1[N+](=O)[O-],"inconclusive: 79.4 µM [inhibitor, partial curve, poor fit]",
Cc1ccc(S(=O)(=O)CCC(=O)OCC(=O)NNC(=O)c2ccc([N+](=O)[O-])cc2)cc1,"inconclusive: 89.1 µM [inhibitor, single point]",
COc1ccc2c(c1)C1CC(C)(NC(=O)C1S(=O)(=O)c1ccc(F)cc1)O2 (centres undefined),"inconclusive: 25.1 µM [inhibitor, full curve]",
Cc1cc(C(=O)CSc2nc3ccccc3c(=O)[nH]2)c(C)n1C,"inconclusive: 39.8 µM [inhibitor, single point]",
CC(=O)Nc1ccc(C(=O)COC(=O)CCS(=O)(=O)c2ccccc2)cc1,,inactive: -12.9%
Cc1ccc(C(=O)CCS(=O)(=O)c2ccc(Br)cc2)cc1,,inactive: -25.5%
CN(C)c1ccc(C2C3=C(CCCC3=O)OC3=C2C(=O)CCC3)cc1,,inactive: 11.6%
Cc1nc2sc(C(=O)O)c(N)c2c2c1COC(C)(C)C2,"inconclusive: 79.4 µM [inhibitor, single point]",
COc1ccc(C2CC(=O)N3CN(c4ccc(C)c(Cl)c4)CSC3=C2C#N)cc1 (centres undefined),active: 31.6 µM,
COc1cnc(-c2ccccn2)nc1Sc1ccccc1Cl,,inactive: 0.42%
CNC(=S)Nc1ccc(C)c(NC(=S)NC)c1,"inconclusive: 89.1 µM [inhibitor, single point]",
CCOC(=O)CC(NC(=O)c1cc2c(=O)n3cccc(C)c3nc2s1)c1ccc(OCC)c(OC)c1 (centres undefined),,inactive: 3.13%
O=C(CCCN1C(=O)/C(=C/c2ccccc2)SC1=S)Nc1ccccc1O,"inconclusive: 79.4 µM [inhibitor, single point]",
O=C(CN1CCN(c2ccccc2F)CC1)c1ccc2cc[nH]c2c1,,inactive: 2.04%
COc1ccc(C)cc1NC(=O)C(NCC(O)c1ccccc1)c1ccccc1 (centres undefined),,inactive: -10.1%
O=C(O)COc1ccccc1/C=N/NC(=O)CSc1nc2ccccc2s1,,inactive: -16.9%
O=C(Nc1ccccc1)c1ccc(COc2ccccc2)cc1,"inconclusive: 12.6 µM [inhibitor, partial curve, poor fit]",
Cc1ccc2nsnc2c1NC(=O)c1ccc(-c2cc(Cl)ccc2Cl)o1,,inactive: -6.48%
COc1ccc2c(c1)O[C@H](c1ccc3c(c1)OCO3)[C@@H](OC(=O)Nc1ccc(C)c(Br)c1)C2=O,,inactive: -0.142%
Nc1ccc2c(c1)C(=O)N(c1ccc3ccccc3c1)C2=O,,inactive: -8.63%

# As a working copy, part of the list above.
SMILES,Potency,"max response, negative = inhibition"
O=C(O)COc1ccccc1/C=N/NC(=O)CSc1nc2ccccc2s1,,inactive: -16.9%
O=C(Nc1ccccc1)c1ccc(COc2ccccc2)cc1,"inconclusive: 12.6 µM [inhibitor, partial curve, poor fit]",
